Source: the supplement of paper PMC10849652
Some of the results follow.

By UniProt entry, the sequences of proteins in these tests, tags left out. Where a name states a change or a piece, a line headed by the entry shows the natural chain unless it says otherwise.
UniProt Q96LJ7: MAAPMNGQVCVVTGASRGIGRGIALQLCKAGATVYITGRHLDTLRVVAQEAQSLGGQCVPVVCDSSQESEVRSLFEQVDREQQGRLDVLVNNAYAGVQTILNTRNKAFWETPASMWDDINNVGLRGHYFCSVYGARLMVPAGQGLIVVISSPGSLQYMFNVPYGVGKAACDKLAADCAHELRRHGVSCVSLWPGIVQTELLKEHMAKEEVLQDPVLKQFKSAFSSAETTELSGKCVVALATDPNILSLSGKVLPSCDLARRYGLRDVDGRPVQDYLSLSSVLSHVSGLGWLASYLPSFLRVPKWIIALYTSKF
UniProt P52429: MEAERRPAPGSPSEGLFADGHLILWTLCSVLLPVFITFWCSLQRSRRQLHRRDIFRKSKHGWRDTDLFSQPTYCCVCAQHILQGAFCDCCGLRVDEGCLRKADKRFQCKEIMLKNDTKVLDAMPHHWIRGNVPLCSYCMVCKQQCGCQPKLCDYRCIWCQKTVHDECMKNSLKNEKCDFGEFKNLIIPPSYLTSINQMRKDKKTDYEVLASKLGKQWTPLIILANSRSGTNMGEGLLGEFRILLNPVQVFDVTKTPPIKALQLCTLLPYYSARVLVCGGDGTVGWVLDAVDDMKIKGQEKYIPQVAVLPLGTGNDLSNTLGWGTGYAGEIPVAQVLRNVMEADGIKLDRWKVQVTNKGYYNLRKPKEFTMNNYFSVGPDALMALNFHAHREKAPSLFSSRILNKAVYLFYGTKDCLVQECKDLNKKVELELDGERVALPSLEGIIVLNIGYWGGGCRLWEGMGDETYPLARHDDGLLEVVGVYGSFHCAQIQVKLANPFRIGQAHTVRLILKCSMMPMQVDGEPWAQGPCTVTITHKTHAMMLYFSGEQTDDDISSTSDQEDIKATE
UniProt Q96GE9: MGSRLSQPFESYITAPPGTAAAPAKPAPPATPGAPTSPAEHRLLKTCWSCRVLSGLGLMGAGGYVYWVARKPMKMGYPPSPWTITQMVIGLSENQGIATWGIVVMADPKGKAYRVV
UniProt P09622, whole entry, looked up: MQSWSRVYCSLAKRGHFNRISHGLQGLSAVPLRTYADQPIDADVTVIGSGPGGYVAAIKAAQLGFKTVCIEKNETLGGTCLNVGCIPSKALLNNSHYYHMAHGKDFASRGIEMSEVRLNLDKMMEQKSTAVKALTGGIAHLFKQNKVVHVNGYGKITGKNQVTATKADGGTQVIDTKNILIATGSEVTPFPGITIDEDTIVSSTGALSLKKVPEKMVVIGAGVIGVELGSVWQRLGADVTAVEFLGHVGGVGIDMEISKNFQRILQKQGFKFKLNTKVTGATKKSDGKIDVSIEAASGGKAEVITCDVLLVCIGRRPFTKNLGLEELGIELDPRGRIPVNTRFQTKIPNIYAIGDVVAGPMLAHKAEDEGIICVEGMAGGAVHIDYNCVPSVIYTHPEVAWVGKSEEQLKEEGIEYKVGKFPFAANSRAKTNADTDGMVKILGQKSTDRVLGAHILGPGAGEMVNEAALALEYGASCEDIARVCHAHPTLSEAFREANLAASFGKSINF
UniProt P17844: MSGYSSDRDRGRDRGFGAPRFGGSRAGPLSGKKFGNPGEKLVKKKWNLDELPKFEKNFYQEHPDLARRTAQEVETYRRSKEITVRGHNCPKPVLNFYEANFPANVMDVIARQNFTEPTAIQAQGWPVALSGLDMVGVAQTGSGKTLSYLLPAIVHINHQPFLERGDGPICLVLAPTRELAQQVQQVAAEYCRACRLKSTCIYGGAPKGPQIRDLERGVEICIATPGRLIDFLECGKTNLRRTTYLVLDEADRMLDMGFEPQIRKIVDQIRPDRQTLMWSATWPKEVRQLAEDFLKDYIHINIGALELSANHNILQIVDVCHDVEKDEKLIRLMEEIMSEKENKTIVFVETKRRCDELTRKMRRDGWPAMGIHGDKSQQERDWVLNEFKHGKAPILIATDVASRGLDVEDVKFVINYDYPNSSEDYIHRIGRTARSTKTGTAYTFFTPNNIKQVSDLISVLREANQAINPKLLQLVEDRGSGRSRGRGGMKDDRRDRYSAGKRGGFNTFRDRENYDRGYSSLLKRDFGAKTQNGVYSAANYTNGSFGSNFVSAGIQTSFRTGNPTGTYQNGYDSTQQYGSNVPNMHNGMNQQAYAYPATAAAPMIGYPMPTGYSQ
UniProt Q8IX18: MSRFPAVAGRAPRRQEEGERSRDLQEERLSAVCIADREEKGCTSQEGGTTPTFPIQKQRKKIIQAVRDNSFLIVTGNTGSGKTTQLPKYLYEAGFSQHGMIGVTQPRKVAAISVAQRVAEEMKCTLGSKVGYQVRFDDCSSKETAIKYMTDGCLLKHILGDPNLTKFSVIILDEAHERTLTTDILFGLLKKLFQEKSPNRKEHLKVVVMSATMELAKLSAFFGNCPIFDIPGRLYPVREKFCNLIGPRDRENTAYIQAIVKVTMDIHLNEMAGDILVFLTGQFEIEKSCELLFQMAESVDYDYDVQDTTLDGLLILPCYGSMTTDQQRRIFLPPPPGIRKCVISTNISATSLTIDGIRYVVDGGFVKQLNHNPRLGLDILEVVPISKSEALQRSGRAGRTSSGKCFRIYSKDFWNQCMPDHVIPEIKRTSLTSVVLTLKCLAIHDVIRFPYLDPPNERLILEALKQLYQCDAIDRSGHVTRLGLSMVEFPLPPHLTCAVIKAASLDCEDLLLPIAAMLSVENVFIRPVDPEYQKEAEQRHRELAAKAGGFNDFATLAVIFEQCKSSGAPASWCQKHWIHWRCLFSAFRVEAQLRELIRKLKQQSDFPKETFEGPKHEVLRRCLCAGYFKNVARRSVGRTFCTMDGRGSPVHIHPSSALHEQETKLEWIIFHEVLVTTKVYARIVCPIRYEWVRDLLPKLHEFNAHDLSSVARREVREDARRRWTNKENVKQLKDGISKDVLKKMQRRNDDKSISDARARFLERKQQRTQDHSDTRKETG
UniProt Q9BSY9: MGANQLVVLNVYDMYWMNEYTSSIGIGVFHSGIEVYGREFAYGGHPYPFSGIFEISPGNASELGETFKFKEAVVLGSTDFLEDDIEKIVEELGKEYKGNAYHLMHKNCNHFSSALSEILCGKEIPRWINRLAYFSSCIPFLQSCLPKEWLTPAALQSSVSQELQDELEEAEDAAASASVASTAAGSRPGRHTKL
UniProt P39656: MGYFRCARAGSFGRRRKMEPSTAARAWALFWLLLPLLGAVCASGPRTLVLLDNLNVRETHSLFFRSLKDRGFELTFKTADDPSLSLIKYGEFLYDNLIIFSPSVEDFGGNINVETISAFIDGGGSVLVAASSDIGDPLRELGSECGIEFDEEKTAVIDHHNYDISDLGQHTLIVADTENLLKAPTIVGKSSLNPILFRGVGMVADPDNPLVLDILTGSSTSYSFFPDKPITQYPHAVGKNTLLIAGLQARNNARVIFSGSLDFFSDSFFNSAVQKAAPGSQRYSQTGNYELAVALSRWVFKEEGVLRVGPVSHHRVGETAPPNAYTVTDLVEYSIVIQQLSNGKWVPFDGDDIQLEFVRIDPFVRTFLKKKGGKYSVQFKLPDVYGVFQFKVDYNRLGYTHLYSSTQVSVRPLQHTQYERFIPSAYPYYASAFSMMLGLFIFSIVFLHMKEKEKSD
UniProt P49366: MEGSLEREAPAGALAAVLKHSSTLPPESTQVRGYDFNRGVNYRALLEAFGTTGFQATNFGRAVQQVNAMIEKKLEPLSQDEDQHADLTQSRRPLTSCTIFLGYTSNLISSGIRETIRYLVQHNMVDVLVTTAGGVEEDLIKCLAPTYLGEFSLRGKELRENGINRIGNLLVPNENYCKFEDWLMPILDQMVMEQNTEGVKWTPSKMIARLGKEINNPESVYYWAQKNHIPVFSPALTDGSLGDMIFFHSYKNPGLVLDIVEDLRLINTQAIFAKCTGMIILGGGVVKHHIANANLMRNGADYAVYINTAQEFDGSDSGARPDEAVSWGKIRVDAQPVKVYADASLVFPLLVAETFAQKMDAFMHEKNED
UniProt Q9NVR5: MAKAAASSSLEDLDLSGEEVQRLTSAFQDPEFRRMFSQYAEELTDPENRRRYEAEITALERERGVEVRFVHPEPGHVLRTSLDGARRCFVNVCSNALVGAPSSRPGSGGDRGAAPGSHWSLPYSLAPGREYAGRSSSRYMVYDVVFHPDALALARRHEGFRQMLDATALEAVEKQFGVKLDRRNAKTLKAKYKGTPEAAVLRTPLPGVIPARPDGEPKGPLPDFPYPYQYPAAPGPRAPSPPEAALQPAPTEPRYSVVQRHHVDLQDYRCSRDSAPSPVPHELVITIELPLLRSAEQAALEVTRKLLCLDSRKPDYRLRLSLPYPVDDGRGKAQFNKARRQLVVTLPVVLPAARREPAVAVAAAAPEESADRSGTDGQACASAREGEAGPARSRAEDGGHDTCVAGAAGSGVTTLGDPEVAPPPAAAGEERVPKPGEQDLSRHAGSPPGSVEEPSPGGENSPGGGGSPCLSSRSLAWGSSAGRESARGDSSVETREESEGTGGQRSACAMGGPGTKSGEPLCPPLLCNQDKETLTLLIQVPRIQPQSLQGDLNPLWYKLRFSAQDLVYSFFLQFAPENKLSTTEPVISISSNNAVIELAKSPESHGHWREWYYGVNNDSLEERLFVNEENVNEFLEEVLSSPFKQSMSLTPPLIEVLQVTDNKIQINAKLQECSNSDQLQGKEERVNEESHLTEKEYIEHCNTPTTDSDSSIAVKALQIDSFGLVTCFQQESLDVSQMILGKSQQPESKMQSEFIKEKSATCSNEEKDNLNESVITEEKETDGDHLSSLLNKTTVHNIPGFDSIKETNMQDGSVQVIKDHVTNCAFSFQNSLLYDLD
UniProt Q96FC9: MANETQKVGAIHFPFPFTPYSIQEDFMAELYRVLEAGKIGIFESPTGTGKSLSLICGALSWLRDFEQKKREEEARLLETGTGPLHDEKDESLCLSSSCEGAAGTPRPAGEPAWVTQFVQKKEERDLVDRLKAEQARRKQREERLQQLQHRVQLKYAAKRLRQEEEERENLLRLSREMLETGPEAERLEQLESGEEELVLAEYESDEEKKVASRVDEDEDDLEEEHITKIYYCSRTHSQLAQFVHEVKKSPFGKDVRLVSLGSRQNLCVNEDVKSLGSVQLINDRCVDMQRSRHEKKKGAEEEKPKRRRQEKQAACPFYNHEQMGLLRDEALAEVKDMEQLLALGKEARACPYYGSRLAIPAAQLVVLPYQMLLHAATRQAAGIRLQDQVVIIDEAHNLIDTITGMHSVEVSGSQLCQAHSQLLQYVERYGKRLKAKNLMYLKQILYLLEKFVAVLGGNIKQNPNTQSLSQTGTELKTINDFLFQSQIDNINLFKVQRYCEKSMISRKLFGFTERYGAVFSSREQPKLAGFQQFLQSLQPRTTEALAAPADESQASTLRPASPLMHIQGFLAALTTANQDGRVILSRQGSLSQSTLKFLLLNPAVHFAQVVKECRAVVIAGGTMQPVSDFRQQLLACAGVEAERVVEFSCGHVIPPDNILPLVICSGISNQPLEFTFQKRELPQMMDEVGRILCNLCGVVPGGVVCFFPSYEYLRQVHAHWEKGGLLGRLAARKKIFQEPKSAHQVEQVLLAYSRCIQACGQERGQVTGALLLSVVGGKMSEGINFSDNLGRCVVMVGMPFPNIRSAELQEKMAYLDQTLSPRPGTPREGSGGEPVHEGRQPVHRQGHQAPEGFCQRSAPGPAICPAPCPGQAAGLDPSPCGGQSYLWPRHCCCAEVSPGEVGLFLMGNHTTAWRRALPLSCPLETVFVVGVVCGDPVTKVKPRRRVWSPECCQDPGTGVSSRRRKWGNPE
UniProt Q96GQ7: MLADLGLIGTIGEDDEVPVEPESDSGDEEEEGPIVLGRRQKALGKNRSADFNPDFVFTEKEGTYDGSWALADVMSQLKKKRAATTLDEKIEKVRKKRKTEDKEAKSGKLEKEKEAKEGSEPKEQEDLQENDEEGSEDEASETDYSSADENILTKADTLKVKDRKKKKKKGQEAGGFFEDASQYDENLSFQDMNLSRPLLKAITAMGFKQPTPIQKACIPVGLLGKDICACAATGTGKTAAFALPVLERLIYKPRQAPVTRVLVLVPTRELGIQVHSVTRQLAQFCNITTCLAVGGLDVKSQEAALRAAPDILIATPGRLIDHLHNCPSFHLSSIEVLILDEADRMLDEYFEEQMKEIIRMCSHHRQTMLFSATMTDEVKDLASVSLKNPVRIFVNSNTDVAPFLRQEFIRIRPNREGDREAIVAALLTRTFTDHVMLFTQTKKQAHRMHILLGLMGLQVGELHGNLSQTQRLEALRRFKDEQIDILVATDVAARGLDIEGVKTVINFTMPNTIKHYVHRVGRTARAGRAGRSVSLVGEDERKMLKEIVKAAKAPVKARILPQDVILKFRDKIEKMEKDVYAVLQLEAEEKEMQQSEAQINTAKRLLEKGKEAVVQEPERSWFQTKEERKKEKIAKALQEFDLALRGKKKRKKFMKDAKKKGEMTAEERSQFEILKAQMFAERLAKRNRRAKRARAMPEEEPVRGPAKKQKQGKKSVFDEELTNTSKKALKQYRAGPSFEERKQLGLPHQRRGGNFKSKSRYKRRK

Assays:
Assay in all cases: log2 fold change, soluble protein after heating vs DMSO (PISA); higher = thermal stabilisation; K562 cells, 10 uM, 30 min; active = over 0.2 and 3.5 SD of the protein, either way, in both replicates (recomputed)
[1] = compound: CS(=O)(=O)c1ccc(-c2cnc(N)c(C(=O)Nc3ccccc3)n2)cc1
Summary of the method: (§1)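 K562 cells at 2×10^6 cells/mL were treated for 30 min with 10 μM compound, and aliquots were heated for 3 min over 48°C-58°C before pooling. Extraction used PBS with 0.5% NP-40 at 4°C, and soluble protein was the supernatant after 21,000xg for 90 min, measured by TMTpro 16plex LC-MS/MS with channel sums equalised. Thermal stability values, relative to control samples and from duplicates, are log2 fold changes.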

[2] = compound: C[C@@H]1COCCN1C2=NC(=NC(=C2)C3(CC3)S(=O)(=O)C)C4=C5C=CNC5=CC=C4
Summary of the method: as §1

[3] = compound: C[C@H](C1=CC=C(C=C1)C(=O)NC2=C3C=CNC3=NC=C2)N
Summary of the method: as §1

[4] = compound: C[C@H](Nc1ncnc2nc[nH]c12)c1cc2cccc(Cl)c2c(=O)n1-c1ccccc1 [duvelisib]
Summary of the method: as §1

[5] = compound: Cc1cc(Nc2cc(CN3CCOCC3)c3nc(C)c(Cc4ccc(Cl)cc4F)n3n2)n[nH]1 [gandotinib]
Summary of the method: as §1

[6] = compound: Cc1cc(Nc2cc(N3CCN(C)CC3)nc(Sc3ccc(NC(=O)C4CC4)cc3)n2)n[nH]1 [tozasertib]
Summary of the method: as §1

[7] = compound: Cc1cc(SCc2sc(-c3ccc(C(F)(F)F)cc3)nc2C)ccc1OCC(=O)O
Summary of the method: as §1

[8] = compound: Cc1ccc(C(=O)N(CCCN)[C@@H](c2nc3cc(Cl)ccc3c(=O)n2Cc2ccccc2)C(C)C)cc1 [ispinesib]
Summary of the method: as §1

[9] = compound: Cc1ccc(NC(=O)c2ccc(CN3CC[C@H](N(C)C)C3)c(C(F)(F)F)c2)cc1Nc1nccc(-c2cncnc2)n1 [bafetinib]
Summary of the method: as §1

[10] = compound: Cc1cccc(CC(=O)N2CCc3c2ccc(-c2cn(C)c4ncnc(N)c24)c3F)n1
Summary of the method: as §1

[11] = compound: Cc1cn(-c2cc(NC(=O)c3ccc(C)c(Nc4nccc(-c5cccnc5)n4)c3)cc(C(F)(F)F)c2)cn1 [nilotinib]
Summary of the method: as §1

[12] = compound: Cc1nc(Nc2n[nH]c3c2CN(C(=O)N[C@H](CN(C)C)c2ccccc2)C3(C)C)c2sccc2n1
Summary of the method: as §1

[13] = compound: Cc1nc(Nc2ncc(C(=O)Nc3c(C)cccc3Cl)s2)cc(N2CCN(CCO)CC2)n1 [dasatinib]
Summary of the method: as §1

[14] = compound: Cc1ncc(-c2ccnc(Nc3ccc(S(C)(=O)=O)cc3)n2)n1C(C)C
Summary of the method: as §1

[15] = compound: Cn1cc(-c2ccc3c(c2)CCN3C(=O)Cc2cccc(C(F)(F)F)c2)c2c(N)ncnc21
Summary of the method: as §1

[16] = compound: Cn1cc(-c2ccc3nnc(C(F)(F)c4ccc5ncccc5c4)n3n2)cn1
Summary of the method: as §1

[17] = compound: Cn1cncc1[C@@](N)(c1ccc(Cl)cc1)c1ccc2c(c1)c(-c1cccc(Cl)c1)cc(=O)n2C [tipifarnib]
Summary of the method: as §1

[18] = compound: FC(F)(F)c1ccc(/C=C/c2nc(COc3ccc(CCCCn4ccnn4)cc3)co2)cc1 [mubritinib]
Summary of the method: as §1

[19] = compound: C[C@@H](Oc1cc(-c2cnn(C3CCNCC3)c2)cnc1N)c1c(Cl)ccc(F)c1Cl [crizotinib]
Summary of the method: as §1

[20] = compound: Cc1ccc(-n2nc(C(C)(C)C)cc2NC(=O)Nc2ccc(OCCN3CCOCC3)c3ccccc23)cc1 [doramapimod]
Summary of the method: as §1

Row | Target | log2 fold change [1] | log2 fold change [2] | log2 fold change [3] | log2 fold change [4] | log2 fold change [5] | log2 fold change [6] | log2 fold change [7] | log2 fold change [8] | log2 fold change [9] | log2 fold change [10] | log2 fold change [11] | log2 fold change [12] | log2 fold change [13] | log2 fold change [14] | log2 fold change [15] | log2 fold change [16] | log2 fold change [17] | log2 fold change [18] | log2 fold change [19] | log2 fold change [20]
1 | DICER1 (UniProt Q9UPY3) | inactive: -0.017 | inactive: -0.173 | inactive: 0.265 | inactive: -0.18 | inactive: 0.08 | inactive: 0.135 | inactive: 0.166 | inactive: 0 | inactive: 0.123 | inactive: -0.105 | inactive: -0.017 | inactive: -0.02 | inactive: 0.108 | inactive: -0.03 | inactive: -0.141 | inactive: -0.149 | inactive: 0.173 | inactive: 0.035 |  | 
2 | DHRS1 (UniProt Q96LJ7) | inactive: 0.009 | inactive: 0.089 | inactive: -0.028 |  | inactive: 0.297 |  | inactive: 0.571 | inactive: 0.247 | inactive: 0.352 | inactive: 0.316 | inactive: 0.638 | inactive: -0.076 | inactive: 0.02 | inactive: -0.14 | active: 1.1 | inactive: -0.106 | inactive: 0.717 | inactive: 0.178 | inactive: 0.248 | inactive: 0.557
3 | DGKE (UniProt P52429) | inactive: -0.001 |  | inactive: -0.037 |  |  | inactive: 0.114 |  |  | inactive: -0.081 |  | inactive: 0.15 | inactive: -0.215 |  | inactive: -0.189 | inactive: 0.018 |  | inactive: 0.185 | inactive: -0.066 | inactive: -0.24 | inactive: 0.016
4 | DMAC1 (UniProt Q96GE9) | inactive: 0.023 | inactive: 0.037 | inactive: 0.005 |  | inactive: -0.087 |  | inactive: -0.22 | inactive: -0.108 | inactive: -0.138 | inactive: -0.047 | inactive: -0.083 | inactive: 0.067 | inactive: 0.118 | inactive: -0.007 | inactive: -0.014 | inactive: 0.095 | inactive: -0.156 | inactive: 0.085 | inactive: 0.034 | inactive: 0.066
5 | DLD (UniProt P09622) | inactive: -0.068 | inactive: 0.019 | inactive: -0.042 |  | inactive: -0.02 |  | inactive: 0.014 | inactive: -0.083 | inactive: -0.028 | inactive: -0.042 | inactive: 0.034 | inactive: -0.018 | inactive: -0.025 | inactive: -0.066 | inactive: -0.04 | inactive: 0.015 | inactive: -0.008 | active: -0.429 | inactive: -0.023 | inactive: -0.016
6 | DDX5 (UniProt P17844) | inactive: 0.035 | inactive: 0.135 | inactive: 0.125 |  | inactive: -0.016 |  | inactive: 0.165 | inactive: 0.052 | inactive: 0.272 | inactive: 0.018 | inactive: 0.166 | inactive: -0.092 | inactive: -0.19 | inactive: 0.076 | inactive: 0.029 | inactive: 0.046 | inactive: -0.155 | inactive: 0.326 | inactive: -0.16 | inactive: -0.044
7 | DHX40 (UniProt Q8IX18) | inactive: 0.018 | inactive: -0.003 | inactive: 0.03 |  | inactive: -0.079 |  | inactive: 0.01 | inactive: -0.215 | inactive: -0.033 | inactive: 0.038 | inactive: -0.052 | active: -0.289 | inactive: -0.229 | inactive: 0.118 | inactive: 0.103 | inactive: 0.035 | inactive: 0.017 | inactive: 0.084 | inactive: -0.109 | inactive: 0.065
8 | DNAH11 (UniProt Q96DT5) | inactive: -0.054 | inactive: 0.062 | active: 0.695 |  | inactive: 0.104 |  | inactive: -0.069 | inactive: -0.125 | inactive: 0.097 | inactive: -0.396 | inactive: 0.101 | inactive: 0.015 | inactive: -0.036 | inactive: 0.072 | inactive: -0.441 | inactive: 0.126 | inactive: 0.344 | inactive: -0.276 | inactive: 0.071 | inactive: 0.037
9 | DIPK2A (UniProt Q8NDZ4) | inactive: -0.01 |  | inactive: 0.168 | inactive: 0.068 |  | inactive: 0.058 | inactive: -0.017 | inactive: 0.067 | inactive: 0.073 |  | inactive: -0.013 | inactive: -0.238 | inactive: 0.151 | inactive: 0.123 | inactive: 0.01 | inactive: 0.019 |  |  | inactive: -0.054 | inactive: -0.043
10 | DNAH10 (UniProt Q8IVF4) | inactive: 0.124 | inactive: -0.003 | inactive: -0.055 |  | inactive: -0.136 |  | inactive: -0.082 |  | inactive: 0.062 | inactive: -0.052 | inactive: -0.092 | inactive: 0.037 | inactive: 0.093 | inactive: 0.043 | inactive: 0.102 |  |  | inactive: 0.154 | inactive: 0.135 | inactive: -0.003
11 | DESI2 (UniProt Q9BSY9) | inactive: -0.112 |  |  |  |  | inactive: -0.048 |  |  | inactive: -0.025 |  | inactive: -0.078 | inactive: -0.023 |  | inactive: 0.073 |  |  | inactive: 0.044 |  | inactive: -0.022 | inactive: -0.04
12 | DHX36 (UniProt Q9H2U1) | inactive: -0.071 | inactive: -0.062 | inactive: 0.2 |  | inactive: 0.069 |  | inactive: 0.045 | inactive: -0.081 | inactive: 0.065 | inactive: 0.015 | inactive: -0.066 | inactive: 0.052 | inactive: -0.01 | inactive: 0.045 | inactive: -0.076 | inactive: -0.059 | inactive: 0.002 | inactive: -0.128 | inactive: -0.101 | inactive: 0.051
13 | DDOST (UniProt P39656) | inactive: 0.014 | inactive: -0.065 | inactive: -0.055 |  | inactive: 0.02 |  | inactive: -0.016 | inactive: 0.13 | inactive: -0.035 | inactive: -0.001 | inactive: -0.005 | inactive: 0.033 | inactive: 0.016 | inactive: -0.039 | inactive: -0.04 | inactive: 0 | inactive: 0.047 | inactive: -0.022 | inactive: -0.051 | inactive: 0.005
14 | DHPS (UniProt P49366) | inactive: 0.015 | inactive: 0.043 | inactive: -0.047 |  | inactive: 0.032 |  | inactive: -0.054 | inactive: 0.067 | inactive: 0.026 | inactive: -0.057 | inactive: 0.035 | inactive: 0.001 | inactive: 0.014 | inactive: 0.004 | inactive: 0.008 | inactive: -0.005 | inactive: -0.047 | inactive: 0.061 | inactive: -0.008 | inactive: 0.051
15 | DIP2A (UniProt Q14689) | inactive: -0.094 | inactive: 0.159 | inactive: -0.01 |  | inactive: 0.023 |  | inactive: 0.081 | inactive: 0.01 | inactive: -0.005 | inactive: -0.019 | inactive: 0.005 | inactive: -0.07 | inactive: -0.04 | inactive: 0.01 | inactive: 0.043 | inactive: -0.053 | inactive: 0.02 | inactive: 0.002 | inactive: 0.087 | inactive: 0.141
16 | DNA2 (UniProt P51530) | inactive: 0.14 | inactive: -0.078 |  |  | inactive: -0.331 |  |  |  | inactive: 0.042 | inactive: 0.08 | inactive: -0.314 | inactive: -0.342 |  | inactive: -0.151 |  |  | inactive: 0.076 |  | inactive: 0.169 | inactive: 0.037
17 | DNAAF2 (UniProt Q9NVR5) | inactive: 0.018 | inactive: -0.067 | inactive: 0.003 |  | inactive: -0.182 |  | inactive: -0.034 | inactive: 0.032 | inactive: -0.075 | inactive: 0.057 | inactive: 0.023 | inactive: 0.002 | inactive: -0.049 | inactive: 0 | inactive: -0.037 | inactive: 0.036 | inactive: 0.004 | inactive: 0.026 | inactive: -0.015 | inactive: 0.042
18 | DHRS13 (UniProt Q6UX07) | inactive: 0.107 |  | inactive: 0.058 |  | inactive: 0.064 |  | inactive: 0.139 | inactive: -0.034 |  | inactive: -0.208 | inactive: 0.197 | inactive: -0.153 | inactive: 0.005 | inactive: -0.106 | inactive: 0.021 | inactive: -0.168 |  | inactive: 0.049 | inactive: 0.127 | inactive: 0.123
19 | DDX11 (UniProt Q96FC9) | inactive: 0.02 | inactive: -0.144 |  |  |  |  | inactive: 0.015 | inactive: 0.012 | inactive: -0.012 |  | inactive: 0.098 | inactive: 0.033 | inactive: 0.061 | inactive: 0.098 |  | inactive: -0.132 | inactive: 0.005 | inactive: -0.015 | inactive: -0.01 | inactive: 0.224
20 | DDX27 (UniProt Q96GQ7) | inactive: -0.039 | inactive: -0.064 | inactive: 0.37 |  | inactive: 0.073 |  | inactive: 0.071 | inactive: 0.004 |  | inactive: -0.093 | inactive: -0.193 | inactive: -0.051 | inactive: 0.21 | inactive: 0.3 | inactive: -0.313 | inactive: -0.151 |  | inactive: -0.146 | inactive: -0.037 | inactive: 0.135

A second format for part of the listing above.
Row,Target,log2 fold change [1],log2 fold change [2],log2 fold change [3],log2 fold change [4],log2 fold change [5],log2 fold change [6],log2 fold change [7],log2 fold change [8],log2 fold change [9],log2 fold change [10],log2 fold change [11],log2 fold change [12],log2 fold change [13],log2 fold change [14],log2 fold change [15],log2 fold change [16],log2 fold change [17],log2 fold change [18],log2 fold change [19],log2 fold change [20]
13,DDOST (UniProt P39656),inactive: 0.014,inactive: -0.065,inactive: -0.055,,inactive: 0.02,,inactive: -0.016,inactive: 0.13,inactive: -0.035,inactive: -0.001,inactive: -0.005,inactive: 0.033,inactive: 0.016,inactive: -0.039,inactive: -0.04,inactive: 0,inactive: 0.047,inactive: -0.022,inactive: -0.051,inactive: 0.005
14,DHPS (UniProt P49366),inactive: 0.015,inactive: 0.043,inactive: -0.047,,inactive: 0.032,,inactive: -0.054,inactive: 0.067,inactive: 0.026,inactive: -0.057,inactive: 0.035,inactive: 0.001,inactive: 0.014,inactive: 0.004,inactive: 0.008,inactive: -0.005,inactive: -0.047,inactive: 0.061,inactive: -0.008,inactive: 0.051
